According to US20250085283A1, “METHOD FOR QUANTIFYING NICOTINAMIDE ADENINE DINUCLEOTIDE (NAD+) OR NICOTINAMIDE MONONUCLEOTIDE (NMN), AND KIT AND FILTER PAPER FOR PERFORMING THE METHOD” (Teijin Limited, priority 2022, published 2025):

Experiment: Room temperature storage stability of NAD+ and NMN in blood spotted on filter paper (DBS, LC-MS/MS)
Assay type: physicochemical, human
Protocol: A filter paper, to which blood derived from a test subject is added (i.e., corresponding to a filter paper in Step 1 of the present invention), was searched for the optimal one for quantifying NAD+ and NMN when the filter paper with added blood derived from the test subject is stored at room temperature for a certain period of time.
A part of the blood spotted-filter paper prepared in Example 2 was sealed in a moisture absorption standard pouch (Moisture absorption-kun (registered trademark)/Maruto Sangyo Co., Ltd.) and then stored at room temperature. After storage at room temperature for 2 days, 1 week (7 days), or 2 weeks (15 days), the blood-spotted areas were cut out and collected in a 2 mL microtube. After performing the same treatment as in Example 2, measurement by LC-MS/MS was performed under the same conditions as in Example 2.

**Q.** Which “Concentration (mean)” value (human blood on 903 card, room temperature storage for 2 weeks) does the source give for `NC(=O)c1ccc[n+]([C@@H]2O[C@H](COP(=O)([O-])OP(=O)(O)OC[C@H]3O[C@@H](n4cnc5c(N)ncnc54)[C@H](O)[C@@H]3O)[C@@H](O)[C@H]2O)c1` [NAD+, nicotinamide adenine dinucleotide] here?
**A.** 17.15 µM

**Q.** And the “Concentration (mean)” value (human blood on 903 card, room temperature storage for 2 days)?
**A.** 20.63 µM

**Q.** What about the “Concentration (mean)” value (human blood on DMPK-A card, room temperature storage for 2 weeks) of the same compound?
**A.** 17.34 µM

**Q.** And the “Concentration (mean)” value (human blood on DMPK-A card, room temperature storage for 2 days)?
**A.** 21.71 µM

**Q.** And the “Concentration (mean)” value (human blood on DMPK-B card, room temperature storage for 1 week)?
**A.** 26.95 µM

**Q.** What about the “Concentration (mean)” value (human blood on DMPK-B card, room temperature storage for 2 weeks) of the same compound?
**A.** 22.65 µM

**Q.** What about the “Concentration (mean)” value (human blood on DMPK-B card, room temperature storage for 2 days) of the same compound?
**A.** 25.47 µM

**Q.** What about the “Concentration (mean)” value (human blood on DMPK-C card, room temperature storage for 2 weeks) of the same compound?
**A.** 17.02 µM

**Q.** What about the “Concentration (mean)” value (human blood on DMPK-C card, room temperature storage for 2 days) of the same compound?
**A.** 17.23 µM

**Q.** And the “Concentration (mean)” value (human blood, filter paper: none, storage for 0 days (initial value, Table 12))?
**A.** 31.95 µM
